Experimental data as given in PMC11302688, “The Effect of Replication Protein A Inhibition and Post-Translational Modification on ATR Kinase Signaling” (Research Square, 2024).
Construct, isoform or probe ends are uncertain for at least one entry. At least one verdict rests on a figure or table, not on a statement of the authors.

System: RPA (His-tagged heterotrimer RPA70/RPA32/RPA14)
Assay: EMSA (dsDNA unwinding)
Conditions: unwinding read-out, inhibited by PAME 1.6-25 uM; PAME EMSA: 10 mM Tris pH 7.5, 10 mM NaCl, 10% glycerol, 25 C, 10 nM DNA, 7 nM (ssDNA) or 14 nM (duplex) RPA, 1% agarose; recombinant protein; protein details: His (on RPA70, plasmid p11d-tRPA70-His); label: 5' IRDye700 on polyT

“TTTTTTTTTTTTTTTTTTTTTTTTTTTTTT (double strand) [polyT/polyA 30mer duplex]”: binds.
